Among the data in PMC10866667 are binding values, retold here.

Chains of the proteins cited; added tags and fusions are not shown. Residues count along the entry.
UniProt P08887, residues 20-468: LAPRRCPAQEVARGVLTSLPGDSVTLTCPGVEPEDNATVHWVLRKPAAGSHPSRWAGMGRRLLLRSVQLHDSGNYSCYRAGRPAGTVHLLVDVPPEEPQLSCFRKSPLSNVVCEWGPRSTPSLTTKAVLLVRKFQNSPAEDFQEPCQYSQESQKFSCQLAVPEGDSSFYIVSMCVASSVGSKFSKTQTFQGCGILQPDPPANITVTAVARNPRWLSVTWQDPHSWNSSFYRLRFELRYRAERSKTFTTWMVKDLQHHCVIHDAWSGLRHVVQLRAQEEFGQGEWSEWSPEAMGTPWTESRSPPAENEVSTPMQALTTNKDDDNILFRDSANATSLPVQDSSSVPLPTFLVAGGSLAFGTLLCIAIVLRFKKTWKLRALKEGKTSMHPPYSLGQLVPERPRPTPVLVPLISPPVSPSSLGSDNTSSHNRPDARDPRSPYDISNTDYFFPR
UniProt Q8R066, residues 17-326: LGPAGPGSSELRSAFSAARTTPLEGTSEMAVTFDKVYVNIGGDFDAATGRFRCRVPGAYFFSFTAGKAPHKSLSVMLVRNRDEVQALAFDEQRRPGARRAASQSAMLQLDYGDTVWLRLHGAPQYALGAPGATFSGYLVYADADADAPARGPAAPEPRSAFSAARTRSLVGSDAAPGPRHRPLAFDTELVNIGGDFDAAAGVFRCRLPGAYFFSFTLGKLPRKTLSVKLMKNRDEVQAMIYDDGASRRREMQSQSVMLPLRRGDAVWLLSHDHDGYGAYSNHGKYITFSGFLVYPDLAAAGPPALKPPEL
UniProt Q9BXJ3, residues 17-329: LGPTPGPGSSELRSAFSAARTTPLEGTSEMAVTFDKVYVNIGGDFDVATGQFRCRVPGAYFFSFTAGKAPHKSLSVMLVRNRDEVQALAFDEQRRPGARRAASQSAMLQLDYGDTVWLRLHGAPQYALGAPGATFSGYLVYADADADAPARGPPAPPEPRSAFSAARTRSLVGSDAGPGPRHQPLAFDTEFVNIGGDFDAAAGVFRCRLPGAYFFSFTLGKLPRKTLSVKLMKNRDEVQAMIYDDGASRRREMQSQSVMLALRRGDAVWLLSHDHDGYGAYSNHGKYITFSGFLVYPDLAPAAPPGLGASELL

In test [1] the target is T1, IL-6R, endogenous in in vitro-differentiated Th17 cells (mouse (endogenous in Th17 cells)) (UniProt P22272).
T1 sequence: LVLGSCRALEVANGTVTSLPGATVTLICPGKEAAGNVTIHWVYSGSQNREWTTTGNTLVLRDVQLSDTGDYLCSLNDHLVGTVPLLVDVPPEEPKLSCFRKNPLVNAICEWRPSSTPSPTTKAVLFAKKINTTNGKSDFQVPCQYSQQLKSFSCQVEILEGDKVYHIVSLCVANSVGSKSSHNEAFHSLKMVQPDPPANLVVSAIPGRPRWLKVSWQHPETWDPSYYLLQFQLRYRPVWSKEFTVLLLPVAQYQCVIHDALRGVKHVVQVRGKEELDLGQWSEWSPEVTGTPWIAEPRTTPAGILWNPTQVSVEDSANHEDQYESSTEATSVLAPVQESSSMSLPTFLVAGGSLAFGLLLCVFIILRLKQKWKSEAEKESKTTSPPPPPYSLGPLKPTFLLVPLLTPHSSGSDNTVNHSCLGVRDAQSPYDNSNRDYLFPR
Briefly: co-IP; cell membrane extracts from in vitro-differentiated Th17 cells, precipitated with anti-IL-6R, blotted with anti-CTRP4 antibody.

For test [2], the target named is IL-6 receptor (IL-6R), in Jurkat cell membrane extract (UniProt P08887). Briefly: radioligand binding; competition: Jurkat cell membrane extract and 125I-CTRP4 with different concentrations of unlabeled CTRP4, OSM or IL-6; 24 hours at 4°C, 25% PEG, γ counter; only the binder purified.
Test [3] has the same target. As to the kind of experiment: co-IP; membrane protein from Jurkat cell lysates, precipitated with anti-IL-6R antibody and anti-CTRP4 antibody on Protein G Sepharose; lysis buffer 20 mM Tris-HCl pH 7.5, 150 mM NaCl, 0.1% NP-40.
Test [4] shares this target. Briefly: co-IP; Jurkat cells transduced with retrovirus encoding Flag-tagged IL-6 or Flag-tagged IL-6 plus Myc-tagged CTRP4, precipitated with anti-Flag antibody.

No constants are given. Whether binding was seen depends on the method and setting. For some of these results: In cells and extracts the contact can be indirect. Some entries that bind do so weakly or less than the wild type.

Consider “CTRP4, endogenous in in vitro-differentiated Th17 cells (from UniProt Q8R066 17-326)”, for which, in test [1], the binding entry is on record as “binds”.

Take 125I-CTRP4 (from UniProt Q9BXJ3 17-329): in test [2], the binding entry is listed as “binds”.

Regarding “C1q/TNF-related protein 4 (CTRP4), in Jurkat cells (from UniProt Q9BXJ3 17-329)”, in test [3], the binding entry was “binds”.

Turning to “Myc-tagged CTRP4 (Jurkat) (from UniProt Q9BXJ3 17-329)”, in test [4], the binding entry is recorded as “binds”.
